# According to PubChem BioAssay AID624291 (National Center for Advancing Translational Sciences (NCATS), 2012):
# About 220 (0.063%) of roughly 350,000 compounds were called active. This list was built around the results that the source calls inconclusive (neither active nor inactive); the mix of calls is not that of the screen. Calls follow the shape of the dose curve; as a rule, active = well fitted activation curve with a large enough effect; inconclusive = small, poorly fitted or top-dose-only effect; inactive = no such curve, though single readings can be large or run the other way. A potency beside an inconclusive call is a rough fit, not a confirmed value.
# Assay: qHTS for Activators of Integrin-Mediated Alleviation for Muscular Dystrophy; also: nearly all actives have a fitted effect of over 60% in size;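 as to activation: 100% = response of the positive control SU9516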
# Details: alpha7betagal myoblasts, beta-gal FDG fluorescence, 48 h; activation: at 38.3 µM (top of the series)
# In short: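 alpha7betagal+/- myoblasts (passage 13, 250/well) treated 48 h at 37C with compounds at 1:260 dilution of DMSO stock. Lysed, then beta-galactosidase activity read as FDG fluorescence (ex 480/em 540) after 30 min, with pre-read for autofluorescence.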
# Potency is read from the fitted curve at half-maximal effect.
SMILES,Potency,activation
CCc1c(C)nc(N2CCN(c3ccccc3F)CC2)[nH]c1=O,"inconclusive: 28.2 µM [activator, single point]",–
COc1ccc2[nH]c(C(=O)NCc3ccccc3)c(C)c2c1,"inconclusive: 11.2 µM [activator, single point]",–
COc1ccc(-n2ncc3c2CC(C)(C)CC3NC(=O)c2ocnc2C)cc1 (centres undefined),"inconclusive: 5.01 µM [activator, single point]",–
Cc1ccc(Oc2c(C(N)=O)cc([N+](=O)[O-])cc2[N+](=O)[O-])cc1,inactive,–
CN(c1ccc(C(=O)Nc2ccc3c(c2)OCCO3)cc1)S(C)(=O)=O,"inconclusive: 2.51 µM [activator, partial curve, poor fit]",–
COc1ccc(C(=O)Nc2ccccc2C(=O)Nc2ccccc2C(=O)O)cc1,"inconclusive: 3.16 µM [activator, partial curve, poor fit]",–
CC(C)(C)C1CCC2(CC1)NC(=S)N(c1ccccc1)N2 (centres undefined),inactive,–
CCCN(CCO)Cc1ccc(Cl)c(Cl)c1,inactive,–
c1ccc(-c2cnc(-c3ccccc3)nc2)cc1,"inconclusive: 10 µM [activator, partial curve]",–
CC(=O)Nc1ccc(Sc2ccccc2C(=O)O)c(C(=O)O)c1,"inconclusive: 3.16 µM [activator, single point]",–
CC(=O)Nc1cc(C)nn1-c1nc(C)cc(C)n1,inactive,–
CCc1ccc(C2=CSC3=NCCN23)cc1,"inconclusive: 3.55 µM [activator, single point]",–
O=C(NCC(=O)N1CCN(c2ccccn2)CC1)c1ccc(Br)o1,"inconclusive: 5.01 µM [activator, single point]",–
COc1ccc(N2C(=O)CC(Sc3ncn[nH]3)C2=O)c(OC)c1 (centres undefined),inactive,–
Cc1csc(NC(=O)c2ccc(C)s2)n1,"inconclusive: 2.82 µM [activator, partial curve, poor fit]",–
CCN1CCCC1CNC(=O)COc1cc(=O)n(C)c2ccccc12 (centres undefined),"inconclusive: 5.01 µM [activator, single point]",–
C=CCNC(=O)c1cc(Cl)ccc1[N+](=O)[O-],"inconclusive: 3.16 µM [activator, partial curve, poor fit]",–
Cc1[nH]c2ccccc2c1-c1csc(NC(=O)CN2CCOCC2)n1,"inconclusive: 2.82 µM [activator, partial curve, poor fit]",–
CCCCNS(=O)(=O)c1ccc2nc(-c3cccnc3)cc(C(=O)NCCOC)c2c1,"inconclusive: 7.94 µM [activator, partial curve]",–
CCOc1cccc(C2C(C(=O)c3cccs3)=C(O)C(=O)N2Cc2cccnc2)c1 (centres undefined),"inconclusive: 5.62 µM [activator, single point]",–
O=C(Nc1cc(Br)ccc1O)c1cnn2c(C(F)F)cc(C3CC3)nc12,"inconclusive: 28.2 µM [activator, single point]",–
CC(=O)Nc1ccc(/C(C)=N/NS(=O)(=O)c2ccc(C)cc2)cc1,"inconclusive: 20 µM [activator, single point]",–
COc1ccc(Cl)cc1NS(=O)(=O)c1cccc(C(=O)NCC(c2ccco2)N2CCCC2)c1 (centres undefined),inactive,–

SMILES,Potency,activation
O=C(COC(=O)c1ccc(F)c(S(=O)(=O)N2CCCCC2)c1)NCc1ccc(F)cc1,inactive,–
CCN(CC)C(=O)CSc1nc(-c2ccccc2)ccc1C#N,"inconclusive: 11.2 µM [activator, partial curve, poor fit]",–
O=C(NC(=S)Nc1ccccn1)c1cccc([N+](=O)[O-])c1,"inconclusive: 0.501 µM [activator, full curve, poor fit]",–
Cc1nc(Nc2ccc3c(c2)OCO3)c2oc3ccccc3c2n1,inactive,–
Cc1n[nH]c(C)c1Sc1ccccc1[N+](=O)[O-],inactive,–
CCN(C(=O)COC(=O)/C=C/c1ccc(C)o1)c1c(N)n(Cc2ccccc2)c(=O)[nH]c1=O,inactive,–
O=S(=O)(c1ccc2nc(COc3ccc(Cl)cc3Cl)[nH]c2c1)N1CCOCC1,inactive,–
O=[N+]([O-])c1cc(S(=O)(=O)C(F)(F)F)ccc1Sc1nc2ccccc2s1,inactive,–
Cc1nn2c3ccccc3nc2c2ccccc12,inactive,–
CC(C)N1CCc2c(sc(NC(=O)c3nc4ccccc4s3)c2C(N)=O)C1,"inconclusive: 3.16 µM [activator, partial curve, poor fit]",–
CCN(CC)C(=O)Oc1ccc(Cl)c2cccnc12,inactive,–
O=C(/C=C(\O)c1ccccc1)C(=O)NNC(=O)c1ccccc1,inactive,–
CCC1=NN2C(=N)/C(=C\c3ccc(OCc4cc(=O)n5nc(CC)sc5n4)c(OC)c3)C(=O)N=C2S1,"inconclusive: 5.01 µM [activator, partial curve, poor fit]",–
Cn1c(COc2ccc(Br)cc2)nnc1SC1CCc2ccccc2C1=O (centres undefined),"inconclusive: 3.55 µM [activator, full curve, poor fit]",–
COc1ccc(CN(CCC(c2ccccc2)C2CCOC(C)(C)C2)C(C)=O)cc1 (centres undefined),"inconclusive: 11.2 µM [activator, single point]",–
COCC(=O)Nc1ccccc1C(=O)Nc1ccc(OC)cc1,"inconclusive: 3.98 µM [activator, single point]",–
CC(C)CC(=O)NNC(=O)c1ccc(Cl)cc1,"inconclusive: 28.2 µM [activator, single point]",–
COc1ccc(-c2nc(NC(=O)c3ccc(OCC(=O)Nc4ccc(F)cc4)c(OC)c3)sc2C)cc1,inactive,–
COc1cccc(NC(=S)N(CCc2c(C)[nH]c3ccc(C)cc23)Cc2cccs2)c1,inactive,–
Cn1c(COc2ccc(Cl)cc2)nnc1SCC(=O)NC1CCCCC1,"inconclusive: 20 µM [activator, single point]",–
CCCn1nnc(NC(=O)c2cc(Br)cc(Br)c2OC)n1,"inconclusive: 0.447 µM [activator, full curve, poor fit]",–
O=C(CC1SC(=NCc2ccccc2)NC1=O)Nc1ccccc1 (centres undefined),"inconclusive: 28.2 µM [activator, single point]",–
Cc1ccnc(NS(=O)(=O)c2ccc(NC(=O)c3ccc(C)o3)cc2)n1,"inconclusive: 5.01 µM [activator, single point]",–

SMILES,Potency,activation
CN(C)C(=O)c1ccc(NC(=O)c2cncc(Br)c2)cc1,inactive,–
Oc1ccc(Nc2nc(-c3ccccc3)nc3ccccc23)cc1,"inconclusive: 3.16 µM [activator, single point]",–
CC(C)C(NC(=O)c1cccs1)C(=O)NC1CCCCC1 (centres undefined),"inconclusive: 5.01 µM [activator, single point]",–
COc1cccc(C(=O)Nc2cc(Cl)c(O)c(Cl)c2)c1,"inconclusive: 20 µM [activator, partial curve, poor fit]",–
CC(=O)c1ccc(NC(=O)CCc2nnc3ccc(N4CCCC4)nn23)cc1,"inconclusive: 2 µM [activator, single point]",–
COc1ccc(N2CCCC2=N)c(OC)c1,–,inconclusive: -17% [activator]
CC(=O)c1cccc(S(=O)(=O)N2CCC(c3nc4ccccc4[nH]3)CC2)c1,"inconclusive: 5.01 µM [activator, partial curve, poor fit]",–
CSc1cccc(N/C(=N/S(=O)(=O)c2ccccc2)NN)c1,"inconclusive: 0.501 µM [activator, full curve, poor fit]",–
CC(=O)N1CC(C)Sc2ccc(S(=O)(=O)NC3CCCCC3C)cc21 (centres undefined),"inconclusive: 1.58 µM [activator, single point]",–
COc1ccc(CCN2CC(C(=O)NCCN3CCOC3=O)CCC2=O)cc1 (centres undefined),"inconclusive: 7.94 µM [activator, partial curve, poor fit]",–
COc1ccc(/C(C)=N/Nc2ccccc2Cl)c(O)c1,"inconclusive: 2.82 µM [activator, single point]",–
CN1CCN(Cc2nc3c(c(=O)n(C)c(=O)n3C)n2CCCc2ccccc2)CC1,inactive,–
CC(C(=O)NCc1ccccc1Cl)N1C(=O)c2ccccc2C1=O (centres undefined),"inconclusive: 12.6 µM [activator, single point]",–
Cc1ccc(C2=CC(c3ccc(N(C)C)cc3)n3nnnc3N2)cc1 (centres undefined),inactive,–
CC(NC(=O)c1cc2c(s1)CS(=O)(=O)C2)c1ccccc1 (centres undefined),"inconclusive: 28.2 µM [activator, single point]",–
Cc1c(-c2ccc(/C=N/NC(=O)C(=O)Nc3ccccc3F)o2)cccc1[N+](=O)[O-],"inconclusive: 1 µM [activator, full curve, poor fit]",–
CCCn1nnc(NC(=O)c2ccc(Br)cc2)n1,"inconclusive: 17.8 µM [activator, partial curve, poor fit]",–
CCOC(=O)COc1ccc(/C=C2/C(=O)NN(c3ccc(F)cc3)C2=O)cc1OC,"inconclusive: 0.316 µM [activator, full curve, poor fit]",–
O=C(Nc1cccc(F)c1)NC1CCCCCCC1,"inconclusive: 14.1 µM [activator, single point]",–
O=C(CSCc1ccc(Cl)cc1Cl)Nc1ccccc1C(=O)Nc1ccc(C(=O)O)cc1,"inconclusive: 2.82 µM [activator, partial curve, poor fit]",–
Cc1ccc(C(=O)C(SC(C)(C)C)n2cncn2)cc1 (centres undefined),"inconclusive: 28.2 µM [activator, single point]",–
Cc1occc1C(=O)N/N=C/C=C/c1ccccc1,"inconclusive: 5.01 µM [activator, single point]",–
C[C@@H]1CCCCO[C@@H](CN(C)C(=O)Nc2ccc3c(c2)OCO3)[C@@H](C)CN([C@H](C)CO)C(=O)c2cc(N(C)C)ccc2O1,inactive,–

# Laid out differently: results already given
SMILES	Potency	activation
Cc1ccc(Oc2c(C(N)=O)cc([N+](=O)[O-])cc2[N+](=O)[O-])cc1	inactive	–
CN(c1ccc(C(=O)Nc2ccc3c(c2)OCCO3)cc1)S(C)(=O)=O	inconclusive: 2.51 µM [activator, partial curve, poor fit]	–
COc1ccc(C(=O)Nc2ccccc2C(=O)Nc2ccccc2C(=O)O)cc1	inconclusive: 3.16 µM [activator, partial curve, poor fit]	–
CC(C)(C)C1CCC2(CC1)NC(=S)N(c1ccccc1)N2 (centres undefined)	inactive	–
CCCN(CCO)Cc1ccc(Cl)c(Cl)c1	inactive	–
